PubChem BioAssay AID652259 – Drosophila RNAi Screening Center – 2013
The deposit covers about 22,000 reagents; shown is a random part of those that have a named target and a result. In the full data, 233 (1.1%) are marked active. 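Light values are raw, unnormalised plate reads; the ratio scores behind the reporter calls were not deposited.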 A number with no mark means an inactive call. Names joined by + are all predicted targets of the reagent. Not stated in the record: the amount of reagent, the time to read-out, the dose of the treatment.

Screen: 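Identify new Wingless signalling regulators in fly cells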 (primary screen)
Cell system: Drosophila clone 8 imaginal disc epithelial cells
Reagents: long dsRNA against Drosophila genes
Treatment: pathway stimulated by co-transfected Wingless expression plasmid
Measurement: 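Firefly luciferase from a tcf-site Wingless reporter, measured alongside co-transfected Renilla luciferase that tracks transfection; pathway stimulated by a Wingless plasmid; the firefly-to-Renilla ratio is not deposited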
Direction: firefly reporter light: higher = more Wg reporter light, before normalisation; Renilla control light: higher = more transfected or surviving cells
Rule for the call: 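a knock-down is a candidate when at least two out of four statistical tests show it departing from its plate mean; one test alone signals a weak candidate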
Meaning of the calls: active = candidate regulator (raises or lowers reporter); inactive = not a candidate

| Gene | amplicon | reporter change call, replicate 1 | firefly reporter light, replicate 1 | firefly reporter light, replicate 2 | Renilla control light, replicate 1 | Renilla control light, replicate 2 |
| --- | --- | --- | --- | --- | --- | --- |
| Cyp4p2 (GeneID 35946) | DRSC07373 | – | 7765 | – | 2068 | – |
| CG13690 (GeneID 33213) | DRSC00359 | – | 2784 | 7120 | 761 | 2772 |
| CG32845 (GeneID 318243) | DRSC07867 | – | 3488 | – | 1360 | – |
| CG13930 (GeneID 38210) | DRSC08399 | – | 7738 | – | 2505 | – |
| Dhc64C (GeneID 38580) | DRSC08656 | – | 6042 | – | 1911 | – |
| CG5084 (GeneID 37051) | DRSC06913 | Wg reporter activity lowered | 6113 | – | 1892 | – |
| Taf11 (GeneID 34293) | DRSC03448 | – | 2880 | 4816 | 723 | 2521 |
| CG9377 (GeneID 34743) | DRSC03217 | – | 6608 | – | 2086 | – |
| CG12078 (GeneID 38401) | DRSC08242 | – | 5251 | – | 1993 | – |
| CG34297 (GeneID 5740802) | DRSC12410 | – | 2710 | – | 1128 | – |
| CG34193 (GeneID 5740572) | DRSC05665 | – | 14752 | – | 8965 | – |
| btz (GeneID 43331) | DRSC14566 | – | 2907 | 8530 | 770 | 1504 |
| CG4789 (GeneID 32668) | DRSC19918 | – | 19484 | – | 7789 | – |
| r-cup (GeneID 33075) | DRSC20475 | – | 17904 | – | 7734 | – |
| CG18135 (GeneID 40073) | DRSC10295 | – | 5632 | – | 3418 | – |
| Cpsf160 (GeneID 44250) | DRSC05968 | – | 10219 | – | 2827 | – |
| Coq7 + shf | DRSC18448 | – | 33848 | – | 11356 | – |
| CR32821 + CR43381 + CR43377 + 1 more | DRSC22544 | – | 6.02e5 | 6.19e5 | 2.18e5 | 1.53e5 |
| Pkn (GeneID 35950) | DRSC06809 | – | 10211 | – | 1034 | – |
| Pkn (GeneID 35950) | DRSC06810 | – | 3174 | 8860 | 1078 | 1809 |
| CG4666 (GeneID 31541) | DRSC18379 | – | 27648 | – | 13005 | – |
| CG32266 (GeneID 317945) | DRSC08062 | – | 2809 | – | 1521 | – |
| CG15382 (GeneID 33391) | DRSC00397 | – | 2563 | 3580 | 885 | 1648 |
| CR40450 + CG32767 | DRSC18387 | – | 5913 | 5883 | 1234 | 1200 |
| dpr16 (GeneID 40619) | DRSC12217 | – | 10178 | – | 1688 | – |
| dpr16 (GeneID 40619) | DRSC12249 | – | 4098 | – | 1302 | – |
| RIOK2 (GeneID 43046) | DRSC14413 | – | 15792 | – | 16113 | – |
| Roc1a (GeneID 31014) | DRSC18483 | – | 25452 | – | 15952 | – |
| CG11698 (GeneID 40986) | DRSC14355 | – | 3818 | – | 1579 | – |
| CG5882 (GeneID 43269) | DRSC15907 | – | 5173 | – | 2336 | – |
| sel (GeneID 36046) | DRSC06232 | – | 12642 | – | 3767 | – |
| Cyt-b5-r (GeneID 35008) | DRSC03308 | – | 4304 | 8950 | 841 | 4316 |
| BBS9 (GeneID 37439) | DRSC04257 | – | 2439 | 8011 | 867 | 3381 |
| CG11693 (GeneID 40984) | DRSC14353 | – | 22224 | – | 4777 | – |

Reprinted from the listing for reference:
| Gene | amplicon | reporter change call, replicate 1 | firefly reporter light, replicate 1 | firefly reporter light, replicate 2 | Renilla control light, replicate 1 | Renilla control light, replicate 2 |
| --- | --- | --- | --- | --- | --- | --- |
| CG4666 (GeneID 31541) | DRSC18379 | – | 27648 | – | 13005 | – |
| CG32266 (GeneID 317945) | DRSC08062 | – | 2809 | – | 1521 | – |
| CG15382 (GeneID 33391) | DRSC00397 | – | 2563 | 3580 | 885 | 1648 |
| CR40450 + CG32767 | DRSC18387 | – | 5913 | 5883 | 1234 | 1200 |
| dpr16 (GeneID 40619) | DRSC12217 | – | 10178 | – | 1688 | – |
| dpr16 (GeneID 40619) | DRSC12249 | – | 4098 | – | 1302 | – |
| RIOK2 (GeneID 43046) | DRSC14413 | – | 15792 | – | 16113 | – |
| Roc1a (GeneID 31014) | DRSC18483 | – | 25452 | – | 15952 | – |
| CG11698 (GeneID 40986) | DRSC14355 | – | 3818 | – | 1579 | – |
| CG5882 (GeneID 43269) | DRSC15907 | – | 5173 | – | 2336 | – |

More results follow.
| Gene | amplicon | reporter change call, replicate 1 | firefly reporter light, replicate 1 | firefly reporter light, replicate 2 | Renilla control light, replicate 1 | Renilla control light, replicate 2 |
| --- | --- | --- | --- | --- | --- | --- |
| peng (GeneID 33112) | DRSC20583 | – | 23990 | – | 10827 | – |
| GatB (GeneID 42861) | DRSC15807 | – | 16138 | – | 13750 | – |
| Hmt4-20 (GeneID 31015) | DRSC18482 | – | 1344 | 4004 | 453 | 902 |
| CG2116 (GeneID 31735) | DRSC18206 | – | 5536 | 6987 | 1062 | 1450 |
| Brf (GeneID 42087) | DRSC13228 | – | 5666 | – | 1227 | – |
| Brf (GeneID 42087) | DRSC14166 | – | 13680 | – | 3988 | – |
| Brf (GeneID 42087) | DRSC14167 | – | 15280 | – | 4139 | – |
| CG31638 (GeneID 33910) | DRSC02269 | – | 2877 | 5521 | 848 | 928 |
| CG31638 (GeneID 33910) | DRSC03259 | – | 3045 | 2657 | 1012 | 669 |
| Rpt4R (GeneID 39351) | DRSC10791 | – | 9477 | – | 3456 | – |
| byn (GeneID 39349) | DRSC11332 | – | 8025 | – | 4368 | – |
| tomboy20 (GeneID 41285) | DRSC14913 | – | 12828 | – | 3874 | – |
| CG13893 (GeneID 38074) | DRSC08363 | – | 4832 | – | 2451 | – |
| Rpn12 (GeneID 39845) | DRSC11275 | – | 3866 | – | 1459 | – |
| CG1690 (GeneID 36004) | DRSC06636 | – | 4608 | 16418 | 1337 | 5520 |
| Neb-cGP (GeneID 50417) | DRSC17991 | – | 26435 | – | 13740 | – |
| PPO2 (GeneID 35910) | DRSC07102 | – | 7543 | – | 2167 | – |
| RpS14b (GeneID 47219) | DRSC18711 | – | 18232 | – | 10508 | – |
| CG8501 (GeneID 36347) | DRSC07198 | – | 8425 | – | 1450 | – |
| Arpc3B (GeneID 32696) | DRSC20126 | – | 13521 | – | 6921 | – |
| CCT6 (GeneID 32518) | DRSC20095 | – | 2599 | 4483 | 1005 | 1612 |
| stet (GeneID 38169) | DRSC08246 | – | 3571 | – | 2355 | – |
| stet (GeneID 38169) | DRSC08283 | – | 7789 | – | 2534 | – |
| mRpS29 (GeneID 37563) | DRSC04398 | – | 5837 | – | 969 | – |
| Eglp2 (GeneID 37737) | DRSC04294 | – | 11929 | – | 3049 | – |
| Prosalpha4 (GeneID 32584) | DRSC20271 | – | 15959 | – | 9597 | – |
| CG18477 + CG31780 | DRSC01955 | – | 4417 | 3968 | 1178 | 2401 |
| Drl-2 (GeneID 36436) | DRSC05393 | – | 12762 | – | 11059 | – |
| Drl-2 (GeneID 36436) | DRSC06155 | – | 5298 | – | 2160 | – |
| Drl-2 (GeneID 36436) | DRSC06858 | – | 5975 | – | 2240 | – |
| CG8611 (GeneID 32725) | DRSC19340 | – | 1627 | 5581 | 647 | 1804 |
| Ir62a (GeneID 3885628) | DRSC08250 | – | 4957 | – | 2324 | – |
| Rsph4a (GeneID 37831) | DRSC04338 | – | 21944 | – | 6404 | – |
| CG17270 (GeneID 42462) | DRSC15209 | – | 2986 | 8872 | 1225 | 2393 |
| dome (GeneID 32976) | DRSC19583 | – | 1740 | 5956 | 784 | 1824 |
| Nepl17 (GeneID 43408) | DRSC14880 | – | 7808 | – | 4644 | – |
| CG33640 (GeneID 3772680) | DRSC01324 | – | 20375 | – | 9268 | – |
| NimB4 (GeneID 34814) | DRSC01884 | – | 6890 | – | 2285 | – |
| S6kII (GeneID 33139) | DRSC20645 | – | 3248 | 7868 | 1409 | 2689 |
